Measured values: PubChem BioAssay AID720641 (ICCB-Longwood Screening Facility, Harvard Medical School, 2013)
The other results are listed elsewhere or left out.

Assay: Staphylococcus aureus RN4220 growth blockers – two temperatures, LtaS inhibitor project, primary screen (AID 720641)
Conditions: S. aureus RN4220 growth, OD600, 20 h, 42 °C; measured here: growth at 30 °C; stronger effect = lower value
For `CN(C)C1(CNC(=O)c2ccc(C(C)(C)C)cc2)CCCCC1`, the relative growth was 84.1%.
`CC1CN(Cc2ccccc2)CCC1=O` (configuration not stated) showed a relative growth of 84.3%.
In the case of `CCN1CCC(Nc2ccc(F)cc2)CC1`, the relative growth is reported as 111%.
`CC1CN(C)C(C)CC1Nc1ccccc1` (configuration not stated) showed a relative growth of 75.6%.
`Cc1ccccc1C(=O)NCC1(N(C)C)CCCCC1` showed a relative growth of 89%.
Molecule `CC1CN(CCc2ccccc2)C(C)CC1=O` (configuration not stated) has a relative growth of 85.5%.
`CN(C)c1ccc(C(=O)NCC2(N3CCCCC3)CCCCC2)cc1` gave a relative growth of 97.7%.
`CC(C)(C)c1ccc(C(=O)NCC2(N3CCOCC3)CCCCC2)cc1` gave a relative growth of 95.7%.
Work on `CCOc1ncccc1C(=O)NCC1(N(C)C)CCCCC1` yielded a relative growth of 92.3%.
`COc1cc(C(=O)NCC2(N3CCOCC3)CCCCC2)cc(OC)c1OC` gave a relative growth of 90.9%.
Molecule `O=C(NCC1(N2CCCCC2)CCCCC1)c1n[nH]c2ccccc12` has a relative growth of 85.1%.
`CCOc1ncccc1C(=O)NCC1(N2CCCCC2)CCCCC1` gave a relative growth of 92.2%.
Molecule `NC(=O)C1(Nc2ccccc2)CCN(Cc2ccccc2)CC1` has a relative growth of 85.1%.
For `O=C1CCN(CCc2ccccc2)CC1`, the relative growth was 85.6%.
`CN1CCC(Nc2ccc(F)cc2)CC1` gave a relative growth of 112%.
In the case of `O=C(NCC1(N2CCOCC2)CCCCC1)c1ccccc1[N+](=O)[O-]`, the relative growth is reported as 92.6%.
Work on `O=C(NCC1(N2CCOCC2)CCCCC1)c1ccc([N+](=O)[O-])cc1` yielded a relative growth of 94.2%.
With `O=C(NCC1(N2CCOCC2)CCCCC1)c1cc2ccccc2cc1O` the relative growth was 79.8%.
`O=C(NCC1(N2CCOCC2)CCCCC1)c1ccccc1` showed a relative growth of 90.5%.
Work on `CCCN1CCC(Nc2cc(OC)cc(OC)c2)CC1` yielded a relative growth of 91.2%.
Work on `Cc1c(C(=O)NCC2(N3CCOCC3)CCCCC2)oc2c(Cl)cccc12` yielded a relative growth of 90.1%.
Work on `Cn1nc(C(=O)NCC2(N3CCCCC3)CCCCC2)c2ccccc2c1=O` yielded a relative growth of 90.8%.
Work on `CC(C)(C)OC(=O)N1CCC(Nc2ccc(OC(F)(F)F)cc2)CC1` yielded a relative growth of 90.7%.
`CCOc1ccc(C(=O)NCC2(N3CCOCC3)CCCCC2)cc1` showed a relative growth of 93.6%.
In the case of `CCCOc1cccc(C(=O)NCC2(N3CCOCC3)CCCCC2)c1`, the relative growth is reported as 93.9%.
With `FC(F)(F)Oc1ccc(NC2CCNCC2)cc1` the relative growth was 99%.
For `NC(=O)C1(Nc2ccc(F)cc2)CCNCC1`, the relative growth was 81.2%.
Work on `c1ccc(CN2CCC(Nc3ccc4c(c3)OCO4)CC2)cc1` yielded a relative growth of 77%.
`O=C(NCC1(N2CCOCC2)CCCCC1)c1ccccc1Br` showed a relative growth of 100%.
Work on `Cc1ccc(C(=O)NCC2(N(C)C)CCCCC2)o1` yielded a relative growth of 96.2%.
`CCCCOc1ccccc1C(=O)NCC1(N2CCOCC2)CCCCC1` gave a relative growth of 81.9%.
Work on `CCCN1CCC(Nc2ccc(OC)c(OC)c2)CC1` yielded a relative growth of 79.6%.
With `COc1ccc(C(=O)NCC2(N3CCCCC3)CCCCC2)cc1` the relative growth was 89%.
`Cc1ccccc1NC1CC(C)(C)NC(C)(C)C1` gave a relative growth of 85.5%.
Molecule `CC1CN(CCc2ccccc2)CCC1=O` (configuration not stated) has a relative growth of 89.2%.
`N#CC1(Nc2ccccc2)CCN(Cc2ccccc2)CC1` showed a relative growth of 90.7%.
With `O=C1CCN(Cc2ccccc2)CC1` the relative growth was 102%.
`O=C(NCC1(N2CCOCC2)CCCCC1)c1ccc2nc[nH]c2c1` gave a relative growth of 92.5%.
For `O=C(NCC1(N2CCOCC2)CCCCC1)c1ccc(Cl)cc1`, the relative growth was 100%.
In the case of `COc1ccccc1C(=O)NCC1(N2CCOCC2)CCCCC1`, the relative growth is reported as 89.2%.
Molecule `CCOC(=O)N1CCC(Nc2ccc(F)cc2)CC1` has a relative growth of 111%.
Molecule `CCOC(=O)N1CCC(Nc2cccc(C)c2)CC1` has a relative growth of 104%.
